No constants are given. Whether binding was seen depends on the method and setting. Binding seen in cells or lysates may run through a third protein. These calls come from enrichment with a bait or labelling near it, and not all partners need be listed. Tags and fused reporters may be left off the sequences shown.
T1: MKK2-TurboID-Hisx8 fusion protein (mitogen-activated protein kinase kinase 2 fused to TurboID) (Arabidopsis thaliana) (UniProt Q9S7U9)
T1 sequence: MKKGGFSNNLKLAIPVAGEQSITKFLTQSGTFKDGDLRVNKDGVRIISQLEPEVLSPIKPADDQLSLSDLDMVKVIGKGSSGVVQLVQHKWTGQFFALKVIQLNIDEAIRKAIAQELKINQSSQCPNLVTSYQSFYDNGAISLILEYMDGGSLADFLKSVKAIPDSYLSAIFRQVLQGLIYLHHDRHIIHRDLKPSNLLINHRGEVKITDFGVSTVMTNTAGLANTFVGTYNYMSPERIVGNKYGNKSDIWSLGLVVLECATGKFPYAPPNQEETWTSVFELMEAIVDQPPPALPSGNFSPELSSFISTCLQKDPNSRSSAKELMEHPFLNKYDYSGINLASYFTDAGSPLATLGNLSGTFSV

Protein sequences, listed by entry. Tags and fused reporters are not part of them. Lines headed by an entry give the natural chain unless they say otherwise; changes in a name come on top.
UniProt Q9SD86: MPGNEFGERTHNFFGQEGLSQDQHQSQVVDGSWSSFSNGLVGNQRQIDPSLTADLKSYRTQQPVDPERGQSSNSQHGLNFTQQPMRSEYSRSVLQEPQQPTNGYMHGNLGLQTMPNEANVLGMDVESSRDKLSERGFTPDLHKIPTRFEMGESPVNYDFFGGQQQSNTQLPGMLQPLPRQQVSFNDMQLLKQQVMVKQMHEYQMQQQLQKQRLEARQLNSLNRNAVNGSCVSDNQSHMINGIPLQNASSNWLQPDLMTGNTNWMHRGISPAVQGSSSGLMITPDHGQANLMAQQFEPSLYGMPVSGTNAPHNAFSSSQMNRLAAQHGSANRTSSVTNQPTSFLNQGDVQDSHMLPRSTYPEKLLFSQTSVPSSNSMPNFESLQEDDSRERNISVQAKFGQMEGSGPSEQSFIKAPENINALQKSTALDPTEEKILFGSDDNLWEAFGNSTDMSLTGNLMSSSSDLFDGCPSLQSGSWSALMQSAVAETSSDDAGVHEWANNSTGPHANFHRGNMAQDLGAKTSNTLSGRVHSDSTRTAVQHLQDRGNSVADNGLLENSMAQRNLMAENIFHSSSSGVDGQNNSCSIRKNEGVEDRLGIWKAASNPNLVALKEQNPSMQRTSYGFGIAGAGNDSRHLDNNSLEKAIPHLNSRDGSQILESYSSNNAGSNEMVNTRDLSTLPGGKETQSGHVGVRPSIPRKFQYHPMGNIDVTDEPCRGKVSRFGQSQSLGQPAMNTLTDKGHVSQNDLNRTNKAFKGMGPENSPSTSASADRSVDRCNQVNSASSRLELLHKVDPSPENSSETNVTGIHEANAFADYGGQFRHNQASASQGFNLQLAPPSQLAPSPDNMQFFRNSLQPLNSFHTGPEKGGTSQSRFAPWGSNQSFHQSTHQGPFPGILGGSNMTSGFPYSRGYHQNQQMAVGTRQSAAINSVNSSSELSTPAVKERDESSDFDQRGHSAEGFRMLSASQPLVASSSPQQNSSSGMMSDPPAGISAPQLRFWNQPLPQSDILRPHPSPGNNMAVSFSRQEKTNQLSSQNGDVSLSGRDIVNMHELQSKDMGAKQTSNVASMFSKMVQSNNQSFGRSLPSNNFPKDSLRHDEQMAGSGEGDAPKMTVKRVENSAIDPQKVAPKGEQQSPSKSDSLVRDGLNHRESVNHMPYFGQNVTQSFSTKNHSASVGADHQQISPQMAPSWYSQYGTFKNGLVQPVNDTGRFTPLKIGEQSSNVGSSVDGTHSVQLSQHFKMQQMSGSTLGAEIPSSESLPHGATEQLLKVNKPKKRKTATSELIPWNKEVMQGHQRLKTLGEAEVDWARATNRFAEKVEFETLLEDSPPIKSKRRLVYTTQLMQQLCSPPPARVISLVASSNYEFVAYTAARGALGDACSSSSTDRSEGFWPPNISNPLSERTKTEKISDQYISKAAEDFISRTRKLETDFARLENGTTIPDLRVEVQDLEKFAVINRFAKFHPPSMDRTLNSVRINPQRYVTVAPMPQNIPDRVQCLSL
UniProt F4HQ88: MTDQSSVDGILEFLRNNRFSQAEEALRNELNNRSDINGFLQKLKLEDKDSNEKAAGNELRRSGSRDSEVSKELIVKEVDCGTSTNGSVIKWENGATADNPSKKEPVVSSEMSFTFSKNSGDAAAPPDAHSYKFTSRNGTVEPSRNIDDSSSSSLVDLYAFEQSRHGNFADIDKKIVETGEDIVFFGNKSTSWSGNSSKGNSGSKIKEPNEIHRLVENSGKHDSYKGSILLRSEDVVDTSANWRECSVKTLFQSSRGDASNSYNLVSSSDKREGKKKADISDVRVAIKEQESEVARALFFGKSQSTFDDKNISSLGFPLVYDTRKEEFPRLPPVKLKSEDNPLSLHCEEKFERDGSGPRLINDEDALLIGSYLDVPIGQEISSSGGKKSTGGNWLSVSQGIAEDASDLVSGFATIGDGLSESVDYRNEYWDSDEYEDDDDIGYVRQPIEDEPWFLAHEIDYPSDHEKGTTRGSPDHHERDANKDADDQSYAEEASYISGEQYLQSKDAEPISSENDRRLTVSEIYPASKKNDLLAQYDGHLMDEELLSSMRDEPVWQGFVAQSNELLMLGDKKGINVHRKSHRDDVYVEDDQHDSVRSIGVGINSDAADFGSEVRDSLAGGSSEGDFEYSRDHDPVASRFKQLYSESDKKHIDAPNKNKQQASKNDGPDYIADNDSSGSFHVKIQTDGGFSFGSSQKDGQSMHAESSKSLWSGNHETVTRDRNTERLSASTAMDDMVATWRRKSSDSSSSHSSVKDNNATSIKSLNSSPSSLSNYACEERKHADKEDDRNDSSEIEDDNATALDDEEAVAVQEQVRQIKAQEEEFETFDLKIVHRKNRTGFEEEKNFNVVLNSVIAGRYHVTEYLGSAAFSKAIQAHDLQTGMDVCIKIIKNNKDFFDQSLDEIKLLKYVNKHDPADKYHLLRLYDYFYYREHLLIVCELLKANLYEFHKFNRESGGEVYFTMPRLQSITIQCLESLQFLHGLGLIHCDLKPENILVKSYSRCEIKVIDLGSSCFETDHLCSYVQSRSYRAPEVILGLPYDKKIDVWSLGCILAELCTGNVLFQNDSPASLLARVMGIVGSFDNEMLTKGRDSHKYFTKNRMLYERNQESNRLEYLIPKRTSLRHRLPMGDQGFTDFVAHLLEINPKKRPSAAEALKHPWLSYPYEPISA
UniProt Q9SMP0: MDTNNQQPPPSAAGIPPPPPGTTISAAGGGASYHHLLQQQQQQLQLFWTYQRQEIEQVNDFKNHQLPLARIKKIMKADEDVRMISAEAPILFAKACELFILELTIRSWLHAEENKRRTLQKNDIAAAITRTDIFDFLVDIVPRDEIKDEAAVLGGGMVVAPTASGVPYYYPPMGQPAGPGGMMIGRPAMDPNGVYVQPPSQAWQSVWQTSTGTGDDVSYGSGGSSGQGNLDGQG
UniProt P45432: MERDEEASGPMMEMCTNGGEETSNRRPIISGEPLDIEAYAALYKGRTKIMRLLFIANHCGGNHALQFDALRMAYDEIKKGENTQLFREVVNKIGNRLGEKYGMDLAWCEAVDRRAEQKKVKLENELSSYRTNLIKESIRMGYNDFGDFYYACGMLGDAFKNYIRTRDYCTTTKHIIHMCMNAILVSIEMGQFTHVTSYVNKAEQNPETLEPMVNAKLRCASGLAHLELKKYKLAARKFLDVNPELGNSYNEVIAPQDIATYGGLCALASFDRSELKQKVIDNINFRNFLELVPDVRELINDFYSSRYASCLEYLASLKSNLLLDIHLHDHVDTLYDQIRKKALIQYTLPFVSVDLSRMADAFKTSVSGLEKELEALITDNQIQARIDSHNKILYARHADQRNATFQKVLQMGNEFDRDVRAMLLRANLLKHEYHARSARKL
UniProt Q93YR3: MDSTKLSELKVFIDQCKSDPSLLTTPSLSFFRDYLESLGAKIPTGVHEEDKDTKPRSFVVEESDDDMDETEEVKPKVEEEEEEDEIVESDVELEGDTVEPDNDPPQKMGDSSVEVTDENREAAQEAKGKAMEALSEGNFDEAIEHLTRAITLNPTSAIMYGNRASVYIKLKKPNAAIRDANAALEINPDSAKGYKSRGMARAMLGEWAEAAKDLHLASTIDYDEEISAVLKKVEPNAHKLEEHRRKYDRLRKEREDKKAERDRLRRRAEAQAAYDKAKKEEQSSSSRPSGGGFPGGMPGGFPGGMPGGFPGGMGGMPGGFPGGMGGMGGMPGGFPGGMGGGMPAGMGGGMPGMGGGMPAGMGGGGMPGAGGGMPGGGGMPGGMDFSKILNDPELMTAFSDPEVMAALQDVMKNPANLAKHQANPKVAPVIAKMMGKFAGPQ
UniProt P52032: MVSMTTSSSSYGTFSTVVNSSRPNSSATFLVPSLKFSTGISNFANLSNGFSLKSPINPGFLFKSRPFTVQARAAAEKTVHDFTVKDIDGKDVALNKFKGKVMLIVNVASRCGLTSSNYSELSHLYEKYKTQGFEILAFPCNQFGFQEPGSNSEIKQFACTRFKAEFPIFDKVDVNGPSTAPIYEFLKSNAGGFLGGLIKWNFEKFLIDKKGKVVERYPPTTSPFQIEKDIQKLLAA
UniProt F4K6U2: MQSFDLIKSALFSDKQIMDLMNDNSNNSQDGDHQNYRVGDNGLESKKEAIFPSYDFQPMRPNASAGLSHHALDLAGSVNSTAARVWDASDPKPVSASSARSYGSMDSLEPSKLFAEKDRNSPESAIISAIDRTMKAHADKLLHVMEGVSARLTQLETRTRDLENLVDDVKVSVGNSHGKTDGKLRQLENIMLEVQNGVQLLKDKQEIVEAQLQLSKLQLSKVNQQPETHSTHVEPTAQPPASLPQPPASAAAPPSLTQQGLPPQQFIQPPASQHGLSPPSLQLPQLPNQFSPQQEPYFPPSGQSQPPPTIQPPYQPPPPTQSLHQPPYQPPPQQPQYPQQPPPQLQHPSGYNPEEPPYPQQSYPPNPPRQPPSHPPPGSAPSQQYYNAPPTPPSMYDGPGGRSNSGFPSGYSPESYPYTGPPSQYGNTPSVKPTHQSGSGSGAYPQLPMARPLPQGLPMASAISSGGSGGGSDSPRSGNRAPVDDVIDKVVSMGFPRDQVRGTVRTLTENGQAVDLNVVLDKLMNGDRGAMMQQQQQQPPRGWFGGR
UniProt Q9FT52: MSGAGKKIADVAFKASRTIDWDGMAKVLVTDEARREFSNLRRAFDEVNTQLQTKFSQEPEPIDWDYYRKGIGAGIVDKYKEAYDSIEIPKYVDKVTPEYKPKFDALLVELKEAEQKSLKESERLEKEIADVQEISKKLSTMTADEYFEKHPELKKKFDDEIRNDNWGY
UniProt Q9FIL6: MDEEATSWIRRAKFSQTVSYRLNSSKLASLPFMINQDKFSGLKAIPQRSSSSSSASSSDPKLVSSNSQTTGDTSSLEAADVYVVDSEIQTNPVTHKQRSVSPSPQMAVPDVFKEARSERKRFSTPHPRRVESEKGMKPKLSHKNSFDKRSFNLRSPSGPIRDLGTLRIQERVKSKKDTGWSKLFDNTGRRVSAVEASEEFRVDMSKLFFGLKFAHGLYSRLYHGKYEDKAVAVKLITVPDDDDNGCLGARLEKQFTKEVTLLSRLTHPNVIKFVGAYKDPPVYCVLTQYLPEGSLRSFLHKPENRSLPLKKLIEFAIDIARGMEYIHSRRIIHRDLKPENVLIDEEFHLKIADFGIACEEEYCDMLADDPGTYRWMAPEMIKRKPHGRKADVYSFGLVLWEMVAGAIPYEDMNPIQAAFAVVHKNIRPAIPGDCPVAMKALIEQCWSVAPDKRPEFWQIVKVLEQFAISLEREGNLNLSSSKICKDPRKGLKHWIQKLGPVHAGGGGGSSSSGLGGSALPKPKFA
UniProt F4JLJ3: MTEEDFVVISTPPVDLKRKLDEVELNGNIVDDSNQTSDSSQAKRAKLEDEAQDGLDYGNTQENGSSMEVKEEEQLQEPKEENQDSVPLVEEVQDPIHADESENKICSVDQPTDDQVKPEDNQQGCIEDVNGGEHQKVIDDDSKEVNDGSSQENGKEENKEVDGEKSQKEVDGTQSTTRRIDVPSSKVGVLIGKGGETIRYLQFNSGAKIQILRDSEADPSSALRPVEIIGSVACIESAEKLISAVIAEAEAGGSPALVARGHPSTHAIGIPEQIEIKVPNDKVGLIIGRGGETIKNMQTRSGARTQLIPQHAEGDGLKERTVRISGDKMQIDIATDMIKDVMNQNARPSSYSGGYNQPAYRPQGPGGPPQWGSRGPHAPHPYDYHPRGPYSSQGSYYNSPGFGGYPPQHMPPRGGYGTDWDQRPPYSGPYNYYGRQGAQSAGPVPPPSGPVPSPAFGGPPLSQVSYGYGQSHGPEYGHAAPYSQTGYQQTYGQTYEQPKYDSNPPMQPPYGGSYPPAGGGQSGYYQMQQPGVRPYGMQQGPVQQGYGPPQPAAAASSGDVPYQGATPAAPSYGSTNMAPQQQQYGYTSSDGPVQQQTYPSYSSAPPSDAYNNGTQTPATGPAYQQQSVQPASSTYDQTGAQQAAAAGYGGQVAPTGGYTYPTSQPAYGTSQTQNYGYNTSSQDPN
UniProt O82631: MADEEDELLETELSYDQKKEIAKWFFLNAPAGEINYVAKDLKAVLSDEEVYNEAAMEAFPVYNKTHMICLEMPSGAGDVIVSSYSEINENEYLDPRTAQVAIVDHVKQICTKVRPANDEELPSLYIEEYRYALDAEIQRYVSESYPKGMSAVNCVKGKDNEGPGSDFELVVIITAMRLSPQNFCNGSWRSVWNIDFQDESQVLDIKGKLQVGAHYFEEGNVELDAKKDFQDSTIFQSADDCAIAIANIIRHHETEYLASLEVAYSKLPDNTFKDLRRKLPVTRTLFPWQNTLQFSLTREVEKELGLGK
UniProt P50883: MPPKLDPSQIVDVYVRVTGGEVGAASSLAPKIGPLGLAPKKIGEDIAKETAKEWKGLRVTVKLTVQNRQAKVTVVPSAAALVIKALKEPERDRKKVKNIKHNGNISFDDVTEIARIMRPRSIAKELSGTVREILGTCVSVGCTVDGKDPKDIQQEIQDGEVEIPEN
UniProt F4J2I0: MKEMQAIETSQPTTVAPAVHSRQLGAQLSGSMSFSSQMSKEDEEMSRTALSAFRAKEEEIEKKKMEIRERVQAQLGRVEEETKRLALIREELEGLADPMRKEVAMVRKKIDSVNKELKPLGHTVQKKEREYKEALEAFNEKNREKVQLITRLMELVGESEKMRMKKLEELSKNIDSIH


The molecules below were run against T1, MKK2-TurboID-Hisx8 fusion protein (mitogen-activated protein kinase kinase 2 fused to TurboID) (Arabidopsis thaliana) (assay: proximity labelling; in planta TurboID labelling in MKK1-ID or MKK2-ID transgenic Arabidopsis against TurboID-only (ID) plants; 150 uM biotin and 5 uM estradiol in the medium, 5 min wind of 4 m/sec; denaturing extraction, streptavidin enrichment of biotinylproteins and biotinylpeptides, LC-MS/MS, iBAQ quantitation; hits at log2-ratio >= 1.58 and BH-FDR <= 0.05).

Molecule | binding
SGS domain-containing protein | binds
RabGAP/TBC domain-containing protein | binds
Scaffold protein in the CCR4-NOT complex (NOT1) | binds
A specific subunit of SYD-associated SWI/SNF (SAS) complexes (from UniProt Q9SD86) | binds
ABA responsive trichome formation regulator (SVBL) (from UniProt Q9ZPZ4) | binds
Plant-specific dual-specificity tyrosine phosphorylation-regulated kinase 2A (DYRKP-2A) (from UniProt F4HQ88) (enzyme) | binds
Nuclear factor Y, subunit C1 (ATHAP5A) (from UniProt Q9SMP0) | binds
Shaggy-like kinase 31 (SK31) (from UniProt P45432) | binds
HSP70-interacting protein 1 (ATHIP1) (from UniProt Q93YR3) | binds
Glutathione peroxidase 1 (ATGPX1) (from UniProt P52032) (enzyme) | binds
Ribosomal RNA small subunit methyltransferase G | binds
Basic salivary proline-rich-like protein (DUF1421) (FLOE2) (from UniProt F4K6U2) | binds
Ankyrin repeat protein | binds
ATP synthase D chain, mitochondrial (ATPQ) (from UniProt Q9FT52) | binds
CASC3/Barentsz eIF4AIII binding (BTZ2) | binds
COMPLEX 1 LYR-like protein (EMB2786) | binds
A group C Raf-like protein kinase (RAF36); Wind-Related Kinase 1 (WIRK1) (from UniProt Q9FIL6) (enzyme) | binds
KH domain-containing protein (ATKH18) (from UniProt F4JLJ3) | binds
Capping protein A (ATCPA) (from UniProt O82631) | binds
Ribosomal protein L11 family protein (UL11Z) (from UniProt P50883 1-166) | binds
SEUSS transcriptional co-regulator (SEU) (from UniProt Q8W234 1-877) | binds
A microtubules-associated protein required for bacterial immunity (ACIP1) (from UniProt F4J2I0) | binds
Mitogen activated protein kinase kinase 1 (MKK1) (enzyme, UniProt Q94A06 1-354) MNRGSLCPNPICLPPLEQSISKFLTQSGTFKDGDLRVNKDGIQTVSLSEPGAPPPIEPLDNQLSLADLEVIKVIGKGSSGNVQLVKHKLTQQFFALKVIQLNTEESTCRAISQELRINLSSQCPYLVSCYQSFYHNGLVSIILEFMDGGSLADLLKKVGKVPENMLSAICKRVLRGLCYIHHERRIIHRDLKPSNLLINHRGEVKITDFGVSKILTSTSSLANSFVGTYPYMSPERISGSLYSNKSDIWSLGLVLLECATGKFPYTPPEHKKGWSSVYELVDAIVENPPPCAPSNLFSPEFCSFISQCVQKDPRDRKSAKELLEHKFVKMFEDSDTNLSAYFTDAGSLIPPLAN | binds
BOBBER1, HSP20-like chaperones superfamily protein (BOB1) (protein, UniProt Q9LV09 1-304) MAIISEVEEESSSSRPMIFPFRATLSSANPLGFLEKVFDFLGEQSDFLKKPSAEDEIVVAVRAAKEKLKKAEKKKAEKESVKPVEKKAEKEIVKLVEKKVEKESVKPTIAASSAEPIEVEKPKEEEEKKESGPIVPNKGNGTDLENYSWIQNLQEVTVNIPVPTGTKARTVVCEIKKNRLKVGLKGQDPIVDGELYRSVKPDDCYWNIEDQKVISILLTKSDQMEWWKCCVKGEPEIDTQKVEPETSKLGDLDPETRSTVEKMMFDQRQKQMGLPTSEELQKQEILKKFMSEHPEMDFSNAKFN | binds
UDP-Glycosyltransferase superfamily protein (enzyme, UniProt Q9LSY5 1-495) MKFELVFIPYPGIGHLRSTVEMAKLLVDRETRLSISVIILPFISEGEVGASDYIAALSASSNNRLRYEVISAVDQPTIEMTTIEIHMKNQEPKVRSTVAKLLEDYSSKPDSPKIAGFVLDMFCTSMVDVANEFGFPSYMFYTSSAGILSVTYHVQMLCDENKYDVSENDYADSEAVLNFPSLSRPYPVKCLPHALAANMWLPVFVNQARKFREMKGILVNTVAELEPYVLKFLSSSDTPPVYPVGPLLHLENQRDDSKDEKRLEIIRWLDQQPPSSVVFLCFGSMGGFGEEQVREIAIALERSGHRFLWSLRRASPNIFKELPGEFTNLEEVLPEGFFDRTKDIGKVIGWAPQVAVLANPAIGGFVTHCGWNSTLESLWFGVPTAAWPLYAEQKFNAFLMVEELGLAVEIRKYWRGEHLAGLPTATVTAEEIEKAIMCLMEQDSDVRKRVKDMSEKCHVALMDGGSSRTALQKFIEEVAKNIVSLDKEFEHVALK | binds
AMMECR1 family (protein, UniProt Q9ZVJ2 1-214) MVSANREMAVYCFDTLVSHYNNEETPPPAFEEANHPLFVTWKKIVNGGEPRLRGCIGTLEARRLISGFKDYALTSALRDRRFPPIQAKELPSLQCTVSVLTDYEDAEDYLDWEVGKHGIIIEFTEPETNTKRSATYLPEVPAHEGWTKIEAIDSLVRKAGYNGVITEAVRRRINLTRYQSTLFSMHYSEYLSYVKATRGVVGPVINGINKHAFA | binds
MAPK/ERK kinase kinase 1 (MEKK1) (enzyme, UniProt Q39008 1-608) MDRILARMKKSTGRRGGDKNITPVRRLERRDAARNINYDAASCSSSSAEDLSVSTSSLMTRSLEFPEPTSFRIGGGVGEMDRIYRSLGVSGPDDLAISFDAWEACKKRSSSDVVNRFKSFDLDKVRDQDLSEEGPSGVVVGSDSMNHKVQGQDLSEAGPSGGIVTELSEIGNLITPVDRLVADGVVENRRVMERTPTIVKSKGYLVPNNVVAVGVGVGGGIKGLRPPVLKPPPAMKRPPIDHRGSSWDFLTHFAPSETVKRPSSSSSSSEDGCDEEEGKEEEAEAEEMGARFIQLGDTADETCSFTTNEGDSSSTVSNTSPIYPDGGAIITSWQKGQLLGRGSFGSVYEGISGDGDFFAVKEVSLLDQGSQAQECIQQLEGEIKLLSQLQHQNIVRYRGTAKDGSNLYIFLELVTQGSLLKLYQRYQLRDSVVSLYTRQILDGLKYLHDKGFIHRDIKCANILVDANGAVKLADFGLAKVSKFNDIKSCKGTPFWMAPEVINRKDSDGYGSPADIWSLGCTVLEMCTGQIPYSDLEPVQALFRIGRGTLPEVPDTLSLDARLFILKCLKVNPEERPTAAELLNHPFVRRPLPSVGSGGSGSASPLLRR | binds
AtSGT1a and AtSGT1b are functionally redundant in the resistance to pathogenes (ATSGT1B) (protein, UniProt Q9SUT5 1-358) MAKELAEKAKEAFLDDDFDVAVDLYSKAIDLDPNCAAFFADRAQANIKIDNFTEAVVDANKAIELEPTLAKAYLRKGTACMKLEEYSTAKAALEKGASVAPNEPKFKKMIDECDLRIAEEEKDLVQPMPPSLPSSSTTPLATEADAPPVPIPAAPAKPMFRHEFYQKPEEAVVTIFAKKVPKENVTVEFGEQILSVVIDVAGEEAYHLQPRLFGKIIPEKCRFEVLSTKVEIRLAKAEIITWASLEYGKGQSVLPKPNVSSALSQRPVYPSSKPAKDWDKLEAEVKKQEKDEKLDGDAAMNKFFSDIYSSADEDMRRAMNKSFAESNGTVLSTNWKEVGTKKVESTPPDGMELKKWEY | binds
SC35-like splicing factor 30A (AT-SCL30A) (protein, UniProt Q9LHP2 1-262) MRGRSYTPSPPRGYGRRGRSPSPRGRFGGSRDSDLPTSLLVRNLRHDCRQEDLRRPFEQFGPVKDIYLPRDYYTGDPRGFGFIQFMDPADAAEAKHQMDGYLLLGRELTVVFAEENRKKPTEMRTRDRGGRSNRFQDRRRSPPRYSRSPPPRRGRRSRSRSRGYNSPPAKRHQSRSVSPQDRRYEKERSYSRSPPHNGSRVRSGSPGRVKSHSRSPRRSVSPRKNRSYTPEQARSQSPVPRQSRSPTPVPRGAQNGDRSPSQ | binds
PCF11P-similar protein 4 (PCFS4) (protein, UniProt Q0WPF2 1-808) MDSEKILNPRLVSINSTSRKGMSVELPQKPPPPPSLLDRFKALLNQREDEFGGGEEVLPPSMDEIVQLYEVVLGELTFNSKPIITDLTIIAGEQREHGEGIANAICTRILEAPVEQKLPSLYLLDSIVKNIGRDYGRYFSSRLPEVFCLAYRQAHPSLHPSMRHLFGTWSSVFPPPVLRKIDMQLQLSSAANQSSVGASEPSQPTRGIHVNPKYLRRLEPSAAENNLRGINSSARVYGQNSLGGYNDFEDQLESPSSLSSTPDGFTRRSNDGANPSNQAFNYGMGRATSRDDEHMEWRRKENLGQGNDHERPRALIDAYGVDTSKHVTINKPIRDMNGMHSKMVTPWQNTEEEEFDWEDMSPTLDRSRAGEFLRSSVPALGSVRARPRVGNTSDFHLDSDIKNGVSHQLRENWSLSQNYPHTSNRVDTRAGKDLKVLASSVGLVSSNSEFGAPPFDSIQDVNSRFGRALPDGTWPHLSARGPNSLPVPSAHLHHLANPGNAMSNRLQGKPLYRPENQVSQSHLNDMTQQNQMLVNYLPSSSAMAPRPMQSLLTHVSHGYPPHGSTIRPSLSIQGGEAMHPLSSGVLSQIGASNQPPGGAFSGLIGSLMAQGLISLNNQPAGQGPLGLEFDADMLKIRNESAISALYGDLPRQCTTCGLRFKCQEEHSKHMDWHVTKNRMSKNHKQNPSRKWFVSASMWLSGAEALGAEAVPGFLPTEPTTEKKDDEDMAVPADEDQTSCALCGEPFEDFYSDETEEWMYKGAVYMNAPEESTTDMDKSQLGPIVHAKCRPESNGGDMEEGSQRKKMRS | binds

Reference: article PMC10951710
